From paper PMC10800354 come the findings set out here.

Protein sequences, listed by entry. Tags and fused reporters are not part of them.
UniProt Q9HCJ5: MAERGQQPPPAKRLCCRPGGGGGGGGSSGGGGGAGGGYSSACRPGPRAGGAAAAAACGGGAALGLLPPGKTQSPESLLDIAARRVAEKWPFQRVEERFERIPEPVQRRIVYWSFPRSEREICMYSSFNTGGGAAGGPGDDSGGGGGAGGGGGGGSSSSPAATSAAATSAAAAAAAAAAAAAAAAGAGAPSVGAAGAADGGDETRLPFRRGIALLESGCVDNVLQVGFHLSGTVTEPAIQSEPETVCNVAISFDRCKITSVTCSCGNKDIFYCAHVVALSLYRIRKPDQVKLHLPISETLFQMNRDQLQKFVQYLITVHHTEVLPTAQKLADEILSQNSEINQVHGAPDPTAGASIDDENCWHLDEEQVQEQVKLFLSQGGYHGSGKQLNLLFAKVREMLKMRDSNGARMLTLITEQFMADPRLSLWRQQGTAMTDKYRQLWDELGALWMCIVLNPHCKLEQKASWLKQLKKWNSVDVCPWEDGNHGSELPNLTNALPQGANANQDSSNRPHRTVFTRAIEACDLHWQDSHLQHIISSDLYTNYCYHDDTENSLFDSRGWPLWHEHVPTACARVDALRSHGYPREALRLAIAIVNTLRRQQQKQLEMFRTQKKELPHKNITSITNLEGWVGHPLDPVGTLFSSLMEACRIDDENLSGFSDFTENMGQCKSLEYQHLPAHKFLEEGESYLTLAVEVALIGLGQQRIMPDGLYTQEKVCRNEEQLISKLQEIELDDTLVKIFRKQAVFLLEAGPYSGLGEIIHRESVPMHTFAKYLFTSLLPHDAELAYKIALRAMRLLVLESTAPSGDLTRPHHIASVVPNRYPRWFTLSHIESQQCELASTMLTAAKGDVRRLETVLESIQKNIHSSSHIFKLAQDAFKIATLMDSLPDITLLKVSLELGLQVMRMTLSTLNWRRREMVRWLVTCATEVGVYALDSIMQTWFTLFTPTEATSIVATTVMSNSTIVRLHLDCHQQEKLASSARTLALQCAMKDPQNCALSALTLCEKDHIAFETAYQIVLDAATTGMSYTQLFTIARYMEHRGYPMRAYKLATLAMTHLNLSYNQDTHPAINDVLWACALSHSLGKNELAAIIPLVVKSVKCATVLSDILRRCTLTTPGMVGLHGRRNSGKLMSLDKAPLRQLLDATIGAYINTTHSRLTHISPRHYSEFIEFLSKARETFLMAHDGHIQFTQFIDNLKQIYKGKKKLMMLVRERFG

One assay concerns the target T1, Flag-NAT10 in 293T cells (UniProt Q9H0A0).
T1 sequence: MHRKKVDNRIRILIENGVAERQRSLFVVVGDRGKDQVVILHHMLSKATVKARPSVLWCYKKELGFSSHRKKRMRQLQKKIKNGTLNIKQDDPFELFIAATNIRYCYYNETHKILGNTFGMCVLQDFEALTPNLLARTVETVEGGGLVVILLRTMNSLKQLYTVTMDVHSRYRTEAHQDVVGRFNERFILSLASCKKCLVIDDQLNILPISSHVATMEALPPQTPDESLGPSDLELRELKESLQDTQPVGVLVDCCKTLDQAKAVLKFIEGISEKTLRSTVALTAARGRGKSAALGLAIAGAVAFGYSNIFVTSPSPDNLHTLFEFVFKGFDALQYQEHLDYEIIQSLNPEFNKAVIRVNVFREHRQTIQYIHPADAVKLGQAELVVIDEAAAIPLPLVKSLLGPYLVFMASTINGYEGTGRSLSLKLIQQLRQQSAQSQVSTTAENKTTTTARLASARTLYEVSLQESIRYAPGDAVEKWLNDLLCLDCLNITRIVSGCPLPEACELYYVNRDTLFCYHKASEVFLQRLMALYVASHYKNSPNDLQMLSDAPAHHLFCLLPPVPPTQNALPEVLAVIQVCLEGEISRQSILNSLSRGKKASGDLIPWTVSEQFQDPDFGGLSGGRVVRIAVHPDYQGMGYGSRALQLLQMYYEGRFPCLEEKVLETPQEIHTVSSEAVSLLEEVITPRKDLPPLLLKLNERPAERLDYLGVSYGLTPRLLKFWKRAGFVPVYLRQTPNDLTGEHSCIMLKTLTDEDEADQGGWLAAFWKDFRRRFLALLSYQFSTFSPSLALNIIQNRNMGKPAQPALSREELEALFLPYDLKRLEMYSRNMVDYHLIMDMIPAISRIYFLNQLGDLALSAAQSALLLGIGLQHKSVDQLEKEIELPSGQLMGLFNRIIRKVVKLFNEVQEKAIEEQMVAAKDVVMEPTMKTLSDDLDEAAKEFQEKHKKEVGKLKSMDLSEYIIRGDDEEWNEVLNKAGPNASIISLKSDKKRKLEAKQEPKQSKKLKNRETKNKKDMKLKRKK
The experiment in a line: co-IP; 293T cells transiently co-transfected with Flag-NAT10 and HA-ZSWIM6 plasmids, treated with RNPS1 knockdown and MG132.

For assay [1], the target named is T2, N-acetyltransferase 10 (NAT10), endogenous (human (endogenous in SCC-15)) (UniProt Q9H0A0).
T2 sequence: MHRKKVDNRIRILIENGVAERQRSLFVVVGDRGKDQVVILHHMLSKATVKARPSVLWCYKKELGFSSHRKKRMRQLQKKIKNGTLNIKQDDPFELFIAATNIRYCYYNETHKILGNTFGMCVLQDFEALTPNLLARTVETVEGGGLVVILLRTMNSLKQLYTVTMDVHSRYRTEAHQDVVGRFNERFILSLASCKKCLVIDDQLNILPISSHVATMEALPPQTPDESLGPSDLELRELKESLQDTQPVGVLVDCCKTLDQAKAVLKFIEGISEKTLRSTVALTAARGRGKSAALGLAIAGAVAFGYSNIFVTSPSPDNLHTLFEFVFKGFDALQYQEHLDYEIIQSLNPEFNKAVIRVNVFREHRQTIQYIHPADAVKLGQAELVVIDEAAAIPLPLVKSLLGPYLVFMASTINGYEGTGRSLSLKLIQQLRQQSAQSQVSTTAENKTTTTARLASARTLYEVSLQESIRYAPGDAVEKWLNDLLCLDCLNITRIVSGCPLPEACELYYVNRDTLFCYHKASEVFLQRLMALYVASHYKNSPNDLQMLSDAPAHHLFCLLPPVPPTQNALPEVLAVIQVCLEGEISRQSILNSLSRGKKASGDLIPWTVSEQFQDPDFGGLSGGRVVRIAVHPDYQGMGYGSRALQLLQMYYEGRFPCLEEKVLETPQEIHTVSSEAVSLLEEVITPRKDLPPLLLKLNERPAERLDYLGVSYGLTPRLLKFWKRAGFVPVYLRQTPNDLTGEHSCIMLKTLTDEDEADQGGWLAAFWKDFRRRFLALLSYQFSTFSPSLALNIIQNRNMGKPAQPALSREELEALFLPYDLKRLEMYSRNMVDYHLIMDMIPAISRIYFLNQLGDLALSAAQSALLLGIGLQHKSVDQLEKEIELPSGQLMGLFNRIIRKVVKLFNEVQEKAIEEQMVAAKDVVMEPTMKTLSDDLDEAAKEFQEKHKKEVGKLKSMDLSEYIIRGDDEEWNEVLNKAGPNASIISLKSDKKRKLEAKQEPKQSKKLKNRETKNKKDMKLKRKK
The experiment in a line: co-IP; endogenous proteins in SCC-15, IP with anti-NAT10 or anti-ZSWIM6 antibody after RNPS1 knockdown and MG132 treatment; anti-IgG as negative control.

The target of assay [2] is T2, N-acetyltransferase 10 (NAT10), endogenous (human (endogenous in SCC-15)). The experiment in a line: co-IP; endogenous proteins from SCC-15 cell extracts, IP with anti-NAT10 or anti-RNPS1 antibody, anti-IgG as negative control, immunoblot.

No constants are given. Whether binding was seen depends on the method and setting. In cells and extracts the contact can be indirect. Some binding calls cover weakened binding; strength is not graded here. For part of these data: Sequences can lack the tags named with a protein.

For the molecule “HA-ZSWIM6 in 293T cells (from UniProt Q9HCJ5 1-1215)”, the binding result with Flag-NAT10 in 293T cells is “binds”.

As to “zinc finger SWIM domain-containing protein 6 (ZSWIM6), endogenous (from UniProt Q9HCJ5 1-1215)”, the binding result in assay [1] is “binds”.

B1: RNA-binding protein with serine-rich domain 1 (RNPS1), endogenous (protein, UniProt Q15287 1-305)
chain: MDLSGVKKKSLLGVKENNKKSSTRAPSPTKRKDRSDEKSKDRSKDKGATKESSEKDRGRDKTRKRRSASSGSSSTRSRSSSTSSSGSSTSTGSSSGSSSSSASSRSGSSSTSRSSSSSSSSGSPSPSRRRHDNRRRSRSKSKPPKRDEKERKRRSPSPKPTKVHIGRLTRNVTKDHIMEIFSTYGKIKMIDMPVERMHPHLSKGYAYVEFENPDEAEKALKHMDGGQIDGQEITATAVLAPWPRPPPRRFSPPRRMLPPPPMWRRSPPRMRRRSRSPRRRSPVRRRSRSPGRRRHRSRSSSNSSR
On to B1, for which, in assay [2], the binding result is on record as “binds”.
